# According to PubChem BioAssay AID504834 (National Center for Advancing Translational Sciences (NCATS), 2011):
# Among all 320,000 compounds or so, about 22,000 (6.9%) were called active. The shares of active, inactive and inconclusive entries below differ from those in the screen. Calls follow the shape of the dose curve; as a rule, active = well fitted inhibition curve with a large enough effect; inconclusive = small, poorly fitted or top-dose-only effect, or another doubt; inactive = no such curve, though single readings can be large or run the other way. Potencies beside an inconclusive call are fits to weak or partial responses and may not hold up.
# Experiment: Primary qHTS for delayed death inhibitors of the malarial parasite plastid, 96 hour incubation
# Settings: P. falciparum luciferase reporter growth; series mostly up to 28.7 µM; activity change, negative = inhibition: at the top concentration
# In short: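 Erythrocytes infected with luciferase-expressing P. falciparum were dispensed at 2% hematocrit and 0.05% parasitemia (final), then incubated with compounds 96 hours at 37 C in 5% CO2. Luminescence after detection reagent addition reported growth.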
# % is scaled to controls: 0 for no effect and ±100 for the full control effect; potency is read from the fitted curve at half-maximal effect.
SMILES,Potency,"activity change, negative = inhibition"
CCn1cc(SCC(=O)NC2CCCC2)c2ccccc21,"inconclusive: 18.5 µM [inhibitor, single point]",–
COc1cccc(/C=C2\SC(=S)N(CCCC(=O)NC3=NCCS3)C2=O)c1,–,inactive: -3.73%
CCCc1cc(=O)oc2cc(OCC(=O)NCCc3c[nH]c4ccc(OC)cc34)ccc12,"inconclusive: 18.5 µM [inhibitor, single point]",–
CN(C)CCNC(=O)c1ccc2c(c1)N(Cc1ccc(F)cc1)CCS2,–,inactive: 33.7%
O=C(Nc1nnc(S(=O)(=O)Cc2ccc(F)cc2)s1)c1ccccc1F,"inconclusive: 13.1 µM [inhibitor, single point]",–
CCOC(=O)C1=C(C)N=c2s/c(=C\c3ccc(C(=O)O)cc3)c(=O)n2C1c1ccc(F)cc1 (stereo not given),"inconclusive: 18.5 µM [inhibitor, single point]",–
Cc1cccc(NC(=O)C2CCN(C(=O)NC3CCCCC3)CC2)c1,"inconclusive: 9.28 µM [inhibitor, partial curve]",–
O=C(Nc1nnc(C2CCCC2)s1)C1CCC1,–,inactive: 95.9%
O=C(CN1CCC(NC(=O)Nc2ccccc2)CC1)Nc1cccc([N+](=O)[O-])c1,–,inactive: -7.75%
COc1ccc(/C=N/NC(=O)C(=O)N2CCCC2)cc1OC,"inconclusive: 13.1 µM [inhibitor, single point]",–
CCN1CCN(Cc2ccc(NC(=O)c3ccc(C)c(NC(=O)c4nccnc4N)c3)cc2C(F)(F)F)CC1,active: 2.62 µM,–
CC(C)(C)c1ccc(-c2nnc(SCC(=O)NC3CC3)o2)cc1,active: 1.31 µM,–
Cc1cc(=O)oc2cc(OCCSCCN3CCOCC3)ccc12,"inconclusive: 0.0928 µM [inhibitor, full curve, poor fit]",–
COC(=O)C1=C(C)NC(=S)NC1c1ccco1 (stereo not given),–,inactive: 24.7%
CC(=O)N1c2ccc(S(=O)(=O)N3CCC(C(=O)NCc4ccc(N(C)C)cc4)CC3)cc2CC1C (stereo not given),–,inactive: -16.8%
Oc1c(Br)cc(Br)c2cccnc12,active: 9.53 µM,–
CCOC(=O)c1oc2ccc(S(=O)(=O)N3CCC(C)CC3)cc2c1C,"inconclusive: 11.7 µM [inhibitor, single point]",–
O=C(CN1CCN(S(=O)(=O)c2ccccc2)CC1)Nc1ccccc1C(=O)c1ccccc1,active: 4.65 µM,–
Cc1ccc(C(C)C)cc1OCC(=O)Nc1ccc(-n2cnnn2)cc1,"inconclusive: 10.4 µM [inhibitor, single point]",–
Cc1cc(C)c2nc(/N=C(\N)NC(=O)c3ccccc3)nc(C)c2c1,"inconclusive: 11.7 µM [inhibitor, single point]",–
Cc1cccc(Nc2nc(NCc3ccco3)nc(N)c2[N+](=O)[O-])c1,"inconclusive: 13.1 µM [inhibitor, partial curve, poor fit]",–
CC1CCCC2(C1)NC(=S)c1c(sc3c1CCCC3)N2 (stereo not given),active: 5.22 µM,–
O=C(N/N=C/c1ccncc1)c1ccc(NC(=O)c2cccc(Cl)c2)cc1,–,inactive: 2.12%
Cc1ccc(C(=O)Nc2cccnc2Oc2ccc(Cl)cc2)cc1,"inconclusive: 0.147 µM [inhibitor, full curve, poor fit]",–

SMILES,Potency,"activity change, negative = inhibition"
CN(CC(=O)Nc1ccccc1Br)Cc1nc2ccccc2c(=O)[nH]1,–,inactive: -2.18% [at 5.75 µM]
O=[N+]([O-])c1cccc(NC2=NCCC2)c1,"inconclusive: 4.15 µM [inhibitor, single point]",–
CCc1ccc2[nH]c(=O)c(Cc3ccccc3)c(O)c2c1,"inconclusive: 13.1 µM [inhibitor, partial curve, poor fit]",–
Cc1ccc(OCC(=O)OC(C)CN(C)Cc2ccccc2)cc1 (stereo not given),–,inactive: 8.03%
N#Cc1ccc(OCC(=O)N2CCN(S(=O)(=O)c3cccc(Cl)c3)CC2)cc1,active: 9.28 µM,–
Nc1nc(NCC2CCCO2)nc(Nc2ccccc2)c1[N+](=O)[O-] (stereo not given),"inconclusive: 11.7 µM [inhibitor, single point]",–
CCOC(=O)C1CCN(C(=O)CS(=O)(=O)Cc2nc(-c3ccccc3Cl)oc2C)CC1,"inconclusive: 18.5 µM [inhibitor, single point]",–
Nc1nc(NCc2ccccc2)nc(Nc2ccc(F)cc2)c1[N+](=O)[O-],"inconclusive: 4.15 µM [inhibitor, single point]",–
CC(C)[C@H](NC(=O)[C@@H]1CSC2c3ccccc3C(=O)N21)C(=O)NC1CCCCC1 (stereo not given in full),"inconclusive: 18.5 µM [inhibitor, single point]",–
COCCNC(=S)N1CCCC(CO)C1 (stereo not given),–,inactive: 38.6% [at 5.75 µM]
Cc1cccc(NC(=O)CCCN2C(=O)c3ccccc3C2=O)n1,"inconclusive: 3.7 µM [inhibitor, partial curve, poor fit]",–
COc1ccc(-c2cc(C(=O)Nc3cc(C)on3)no2)cc1OC,"inconclusive: 18.5 µM [inhibitor, single point]",–
O=C(NC(=S)NCc1ccccc1)c1ccccc1F,–,inactive: 13.9%
O=C(Nc1ncc(Cc2ccccc2Cl)s1)C1CCCO1 (stereo not given),"inconclusive: 0.0029 µM [inhibitor, full curve, poor fit]",–
Cc1cc(C)c(-c2cc(C(=O)Nc3cc(C)ccc3C)[nH]n2)c(O)c1,"inconclusive: 10.4 µM [inhibitor, single point]",–
COc1cc(/C=N/NC(=S)NCCc2ccccc2)cc(OC)c1OC,"inconclusive: 10.4 µM [inhibitor, single point]",–
COc1cccc(CN2CC(C(=O)NCCn3ccc(C)n3)CCC2=O)c1 (stereo not given),"inconclusive: 20.8 µM [inhibitor, single point]",–
CSc1ccc(CN2CCN(Cc3ccccc3)C(CCO)C2)cc1 (stereo not given),active: 11.7 µM,–
O=C(CSc1nc2c([nH]c3ccccc32)c(=O)n1-c1ccccc1)N1CCOCC1,–,inactive: -3.85%
FC(F)(F)c1ccccc1CNCCc1c[nH]c2ccccc12,"inconclusive: 9.28 µM [inhibitor, single point]",–
CCc1ccc(-c2nc(CS(=O)CC(=O)NCCCN3CCC(C)CC3)c(C)o2)cc1 (stereo not given),–,inactive: 4.63%
CN(C)C(CNS(=O)(=O)c1ccc2ccccc2c1)c1ccccc1 (stereo not given),–,inactive: 1.44%
Cc1ccccc1C(=O)NC1CCN(C(=O)Nc2ccc(F)cc2)CC1,"inconclusive: 9.28 µM [inhibitor, partial curve]",–
COC(=O)C(C(=O)OC)C(C[N+](=O)[O-])c1ccc(O)c(OC)c1 (stereo not given),"inconclusive: 10.4 µM [inhibitor, single point]",–

SMILES,Potency,"activity change, negative = inhibition"
CCCCCn1c(=O)[nH]c2cc(C(=O)NCCc3ccc(OC)c(OC)c3)ccc2c1=O,"inconclusive: 11.7 µM [inhibitor, partial curve, poor fit]",–
COc1ccc2[nH]c(C)c(CCN(Cc3cccs3)C(=S)Nc3cccc(F)c3)c2c1,active: 0.738 µM,–
NCCc1c[nH]c2ccccc12,"inconclusive: 13.1 µM [inhibitor, single point]",–
COc1cc(S(=O)(=O)Nc2ccc(C)cc2)ccc1N=Cc1c(C)[nH]n(-c2ccccc2)c1=O,"inconclusive: 13.1 µM [inhibitor, single point]",–
COc1cc2c(C#N)c(N3CCOCC3)nc(N)c2c(N)n1,"inconclusive: 3.7 µM [inhibitor, full curve]",–
C=CCNC(=O)NC(=O)CSc1nc2cc([N+](=O)[O-])ccc2n1-c1cccc(C(F)(F)F)c1,"inconclusive: 4.15 µM [inhibitor, single point]",–
Cc1cccc(N=C2NC(=O)/C(=C/C=C/c3ccco3)S2)c1C,"inconclusive: 0.828 µM [inhibitor, full curve, poor fit]",–
CCN(CC)C1CCN(C(=O)CCn2nnnc2CN2CCOCC2)C1 (stereo not given),–,inactive: 13%
CCCCCn1nc(C(=O)OCC(=O)c2c(N)n(C)c(=O)n(C)c2=O)c2ccccc2c1=O,–,inactive: -6.92%
CC/C(=C\C=C\[C@@H]1C=C[C@@H]2CCC[C@H]2[C@@H]1C(=O)c1ccc[nH]1)[C@@H]1O[C@@H]([C@@H](C)C(=O)O)CC[C@@H]1C,"inconclusive: 3.7 µM [inhibitor, full curve, poor fit]",–
O=C(CSc1nnnn1-c1ccc(O)cc1)NC1CCCCC1,"inconclusive: 9.28 µM [inhibitor, partial curve, poor fit]",–
COCCN(C(=O)c1ccccc1F)c1c(N)n(Cc2ccccc2)c(=O)[nH]c1=O,"inconclusive: 0.928 µM [inhibitor, full curve, poor fit]",–
O=C1NC(=O)C2(COC3(CCCC3)OC2)S1,"inconclusive: 18.5 µM [inhibitor, single point]",–
COc1ccccc1-c1nnc(NC(=O)C(C)SC2=NCCS2)s1 (stereo not given),"inconclusive: 11.7 µM [inhibitor, single point]",–
COc1ccccc1CCNC(=O)C(=O)c1cn(CC(=O)N2CCCC2)c2ccccc12,"inconclusive: 13.1 µM [inhibitor, partial curve, poor fit]",–
N=c1sccn1CC(=O)Nc1ccccc1Sc1ccccc1,–,inactive: 0%
Nc1ncnc2c1ncn2CCOc1ccccc1,–,inactive: 87%
Cc1cc(C(=O)Nc2ccc3nc(C)sc3c2)c2ccccc2n1,–,inactive: -20.7%
CCOC(=O)CN1C(c2ccccc2O)Nc2ccc(Br)cc2C1c1ccccc1 (stereo not given),"inconclusive: 18.5 µM [inhibitor, single point]",–
CC(C)(C)c1ccc(C(=O)OCC(=O)N2CCC(c3ccccc3)=N2)cc1,"inconclusive: 18.5 µM [inhibitor, single point]",–
CCOC(=O)c1csc(NC(=O)Nc2cccc(Cl)c2)n1,"inconclusive: 9.28 µM [inhibitor, partial curve, poor fit]",–
O=C(c1ccccc1)c1ccncc1,"inconclusive: 11.7 µM [inhibitor, single point]",–

# A different layout for three compounds above.
SMILES | Potency | activity change, negative = inhibition
Nc1nc(NCC2CCCO2)nc(Nc2ccccc2)c1[N+](=O)[O-] (stereo not given) | inconclusive: 11.7 µM [inhibitor, single point] | –
CCOC(=O)C1CCN(C(=O)CS(=O)(=O)Cc2nc(-c3ccccc3Cl)oc2C)CC1 | inconclusive: 18.5 µM [inhibitor, single point] | –
Nc1nc(NCc2ccccc2)nc(Nc2ccc(F)cc2)c1[N+](=O)[O-] | inconclusive: 4.15 µM [inhibitor, single point] | –
